# Experimental data published in PubChem BioAssay AID1347076 (National Center for Advancing Translational Sciences (NCATS), 2019).
# About 13,000 (3.2%) of roughly 400,000 compounds were called active. This list was built around the results that the source calls inconclusive (neither active nor inactive); the mix of calls is not that of the screen. The call rests on the fitted dose curve; in most records, active means well fitted cell-killing curve with a large enough effect; inconclusive means small, poorly fitted or top-dose-only effect, or effect the other way; inactive means flat fitted curve, though single readings scatter. A potency beside an inconclusive call is a rough fit, not a confirmed value.
# Experiment: qHTS assay for MDR1-selective chemotherapeutics: Primary screen using the drug-selected MDR subline cells KB-V1; further: nearly all actives have a fitted effect of over 60% in size
# Settings: KB-V1 MDR cells viability, CellTiter-Glo, 72 h; activity change, negative = cytotoxicity: at 46.1 µM (top of the series)
# Outline: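 KB-V1 cells (P-gp-expressing MDR subline of KB-3-1) in phenol-red-free DMEM with 10% FBS were exposed to library compounds over a concentration series for 72 h at 37 degrees C. Viability read by CellTiter-Glo luminescence; concentration-effect curves fitted after normalization.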
# On the % scale 0 is the no-effect control and ±100 the full control effect; potency means the concentration at half of the fitted maximal effect.
Compound,Potency,"activity change, negative = cytotoxicity"
Cc1cccc(/C=N\Nc2cn[nH]c(=O)c2Cl)c1,active: 4.11 µM,–
CN1CCN(CC(O)COc2ccc(S(=O)(=O)N3CCOCC3)cc2)CC1 (stereo not drawn),"inconclusive: 29.1 µM [rising, single point]",–
COc1ccc(Cl)cc1NC(=O)CN(c1ccccc1)S(=O)(=O)N(C)C,"inconclusive: 14.6 µM [cytotoxic, partial curve]",–
CCC(Oc1ccc(C)cc1)C(=O)Nc1ccc(S(=O)(=O)Nc2nccs2)cc1 (stereo not drawn),–,inactive: -6.48%
CCCCc1nn2c(=O)cc(COC(=O)C(C)Oc3ccccc3)nc2s1 (stereo not drawn),–,inactive: -0.383%
Cn1nnnc1SCC(=O)N1c2ccccc2Sc2ccccc21,–,inactive: -6.34%
Cc1ccc(-c2csc(=Nc3cccnc3)n2CCCN2CCCC2=O)cc1C,"inconclusive: 11.6 µM [cytotoxic, partial curve, poor fit]",–
COc1ccc(Cl)cc1NC(=O)Cn1nc(C(F)(F)F)c2c1CCC2,"inconclusive: 20.6 µM [cytotoxic, single point]",–
O=C(Nc1ccccc1N1CCN(C(=O)c2ccc(Cl)cc2)CC1)c1ccc(Br)cc1,"inconclusive: 18.4 µM [cytotoxic, partial curve, poor fit]",–
Cc1ccccc1N=C(NO)c1cccnc1,"inconclusive: 25.9 µM [rising, partial curve, poor fit]",–
CCN(CC(=O)NCc1cccs1)C(=O)COc1ccccc1C#N,"inconclusive: 25.9 µM [cytotoxic, single point]",–
COc1ccc(S(=O)(=O)N2CCCC2C(=O)Nc2nc3c(s2)CCCC3)cc1 (stereo not drawn),"inconclusive: 0.184 µM [cytotoxic, partial curve, poor fit]",–
COc1ccc(NS(=O)(=O)c2ccc3c(c2)CCCN3C(=O)C2CCC2)cc1OC,"inconclusive: 7.31 µM [cytotoxic, partial curve, poor fit]",–
CCCN(CCC)CCCNC(=O)c1cn(-c2ccc(OC)cc2)c(=O)c2ccccc12,–,inactive: -1.01%
COC(C(=O)NC1CC1)c1ccccc1 (stereo not drawn),"inconclusive: 14.6 µM [rising, partial curve, poor fit]",–
Cc1ccc(Nc2nc(N)nc(CN3CCCCCC3)n2)c(C)c1,"inconclusive: 25.9 µM [cytotoxic, partial curve, poor fit]",–
CC(=O)c1cc2c(cc1NC(=O)c1ccc(C)cc1)OCCO2,"inconclusive: 14.6 µM [rising, partial curve]",–
CC(C)(C)Nc1nc(NN)nc(NC(C)(C)C)n1,"inconclusive: 2.91 µM [cytotoxic, full curve, poor fit]",–
COc1ccc(OC)c(C2NC(=O)CCC2[N+](=O)[O-])c1 (stereo not drawn),"inconclusive: 6.51 µM [rising, partial curve, poor fit]",–
O=C(Nc1ccccc1N1CCN(C(=O)c2ccccc2)CC1)c1ccccc1Cl,"inconclusive: 5.17 µM [cytotoxic, partial curve]",–
Cc1ccc(NC(=O)C2CCN(C(=O)c3cnn(-c4ccccc4)c3-n3cccc3)CC2)cc1,–,inactive: -13.3%
CC(=O)Nc1cccc(-c2csc(Nc3cc(C)ccn3)n2)c1,active: 23.1 µM,–
CC(=O)C1=CCC(c2ccccc2)N(Cc2ccccc2)C1 (stereo not drawn),"inconclusive: 20.6 µM [cytotoxic, single point]",–

# A different layout for some results above:
Compound	Potency	activity change, negative = cytotoxicity
COc1ccc(S(=O)(=O)N2CCCC2C(=O)Nc2nc3c(s2)CCCC3)cc1 (stereo not drawn)	inconclusive: 0.184 µM [cytotoxic, partial curve, poor fit]	–
COc1ccc(NS(=O)(=O)c2ccc3c(c2)CCCN3C(=O)C2CCC2)cc1OC	inconclusive: 7.31 µM [cytotoxic, partial curve, poor fit]	–
CCCN(CCC)CCCNC(=O)c1cn(-c2ccc(OC)cc2)c(=O)c2ccccc12	–	inactive: -1.01%
COC(C(=O)NC1CC1)c1ccccc1 (stereo not drawn)	inconclusive: 14.6 µM [rising, partial curve, poor fit]	–
Cc1ccc(Nc2nc(N)nc(CN3CCCCCC3)n2)c(C)c1	inconclusive: 25.9 µM [cytotoxic, partial curve, poor fit]	–
CC(=O)c1cc2c(cc1NC(=O)c1ccc(C)cc1)OCCO2	inconclusive: 14.6 µM [rising, partial curve]	–
CC(C)(C)Nc1nc(NN)nc(NC(C)(C)C)n1	inconclusive: 2.91 µM [cytotoxic, full curve, poor fit]	–
COc1ccc(OC)c(C2NC(=O)CCC2[N+](=O)[O-])c1 (stereo not drawn)	inconclusive: 6.51 µM [rising, partial curve, poor fit]	–
O=C(Nc1ccccc1N1CCN(C(=O)c2ccccc2)CC1)c1ccccc1Cl	inconclusive: 5.17 µM [cytotoxic, partial curve]	–
Cc1ccc(NC(=O)C2CCN(C(=O)c3cnn(-c4ccccc4)c3-n3cccc3)CC2)cc1	–	inactive: -13.3%
CC(=O)Nc1cccc(-c2csc(Nc3cc(C)ccn3)n2)c1	active: 23.1 µM	–
CC(=O)C1=CCC(c2ccccc2)N(Cc2ccccc2)C1 (stereo not drawn)	inconclusive: 20.6 µM [cytotoxic, single point]	–

# Next records follow.

Compound,Potency,"activity change, negative = cytotoxicity"
O=S(=O)(c1ccccc1)c1nc(-c2cccs2)oc1N1CCCCC1,"inconclusive: 2.59 µM [cytotoxic, full curve, poor fit]",–
O=C(O)/C=C/C(=O)Nc1ccc(Cl)c(C(=O)O)c1,"inconclusive: 20.6 µM [rising, partial curve, poor fit]",–
Cc1ccc2c(c1)C(O)(CC(=O)/C=C/C=C/c1ccccc1)C(=O)N2 (stereo not drawn),–,inactive: 1.33%
COC(=O)c1ccc(NC(CC(C)C)C(=O)OC)c([N+](=O)[O-])c1 (stereo not drawn),"inconclusive: 18.4 µM [cytotoxic, single point]",–
CCn1cc(CN2CCCC(CNS(=O)(=O)Cc3ccccc3)C2)cn1 (stereo not drawn),"inconclusive: 0.0073 µM [rising, full curve, poor fit]",–
Cc1ccc(Nc2nc(NCc3ccccc3)nc3ccsc23)c(C)c1,–,inactive: -6.6%
O=C1C2C3C=CC(C3)C2C(=O)N1/N=C/c1cn(Cc2ccc(F)cc2)c2ccccc12 (stereo not drawn),–,inactive: -23.7%
CC(NC(=O)c1ccc(CSc2nc3ccncc3n2Cc2ccc(F)cc2)cc1)c1ccccc1 (stereo not drawn),–,inactive: 0%
Cc1ccc(C)c(OCC(=O)Nc2nonc2NC(=O)COc2cc(C)ccc2C)c1,"inconclusive: 29.1 µM [cytotoxic, single point]",–
CCCCC(=O)OCC(=O)c1[nH]c(C)c(C(C)=O)c1C,"inconclusive: 29.1 µM [rising, single point]",–
Cc1cc(C)cc(NC(=O)Nc2ccc(NC(=O)c3ccccc3O)cc2)c1,–,inactive: 15.6%
CO[C@@H]1CN(C)C(=O)c2ccc(NC(=O)C3CCC3)cc2OC[C@H](C)N(CC2CCCCC2)C[C@H]1C,"inconclusive: 8.2 µM [cytotoxic, partial curve]",–
C=CCn1c(SCC(=O)NNC(=S)Nc2ccccc2)nnc1-c1ccccc1,–,inactive: -0.0842%
Cc1ccccc1S(=O)(=O)Nc1ncnc2scc(-c3ccccc3)c12,"inconclusive: 23.1 µM [cytotoxic, single point]",–
CCCCCN1CC(O)=C(c2nc3ccccc3[nH]2)C1=N,"inconclusive: 16.4 µM [cytotoxic, partial curve]",–
CCCCCOC(=O)C1=C(C)NC(=O)NC1c1ccc([N+](=O)[O-])cc1 (stereo not drawn),"inconclusive: 10.3 µM [cytotoxic, partial curve]",–
CCOC(=O)c1c(NC(=O)CSc2nncs2)sc(C)c1-c1ccccc1,active: 7.31 µM,–
Cc1cccc(-n2c(=O)c3c(c4cc(C)ccc4n3C)n(CC(=O)Nc3ccccc3Cl)c2=O)c1,"inconclusive: 29.1 µM [rising, single point]",–
COc1ccc(Cc2nc3ccc(C(=O)N(C)Cc4nccn4C)cc3o2)cc1,"inconclusive: 18.4 µM [cytotoxic, single point]",–
CC(=O)N[C@@H](Cc1c[nH]c2ccccc12)C(=O)NC1CC1,"inconclusive: 20.6 µM [rising, single point]",–
O=C(Nc1cc2c3c(c1)CC(=O)N3CCC2)c1ccccc1C(F)(F)F,"inconclusive: 18.4 µM [cytotoxic, single point]",–
O=c1[nH]c(CN2CCCC2)nc2sc3c(c12)CCC3,"inconclusive: 29.1 µM [cytotoxic, partial curve, poor fit]",–
CCOC(=O)c1sc(NC(=O)CN(CC(C)C)CC(C)C)c(C(=O)OCC)c1C,active: 20.6 µM,–

Compound,Potency,"activity change, negative = cytotoxicity"
COc1ccc(-n2c(=O)[nH]cc(C(=O)Nc3ccc4c(c3)OCCO4)c2=O)cc1OC,"inconclusive: 29.1 µM [rising, single point]",–
O=C(CN1CCOCC1)Nc1nc2ccc(Cl)cc2s1,–,inactive: -13.5%
COc1cc2c(cc1OC)CN(c1nc(-c3cccnc3)nc3ccccc13)CC2,"inconclusive: 29.1 µM [cytotoxic, single point]",–
O=C(c1ccc2ccccc2c1)C1CCCN(S(=O)(=O)c2cccnc2)C1 (stereo not drawn),active: 16.4 µM,–
CCn1cc([N+](=O)[O-])c(C(=O)N2N=C(c3ccc(OC)cc3OC)CC2c2ccccc2O)n1 (stereo not drawn),"inconclusive: 23.1 µM [cytotoxic, partial curve]",–
Cc1ccc(S(=O)(=O)N2CCN(c3cc4c(cc3[N+](=O)[O-])n(C)c(=O)n4C)CC2)cc1,–,inactive: -5.91%
COCCNC(=O)c1ccc2c(c1)N(Cc1ccc(C(F)(F)F)cc1)C(=O)c1ccccc1S2,"inconclusive: 4.11 µM [cytotoxic, full curve]",–
CSc1ccc(C(=O)N2CCc3ccc(NC(=O)c4ccccn4)cc3C2)cc1,"inconclusive: 10.3 µM [cytotoxic, partial curve, poor fit]",–
CCOc1ccccc1NC(=O)C(=O)CC(=O)c1ccc(OC)cc1,active: 16.4 µM,–
O=C(Cc1ccc(S(=O)(=O)N2CCOCC2)s1)N1CCN(c2cccc(C(F)(F)F)c2)CC1,–,inactive: 0%
C/C(=N\NC(=O)c1n[nH]c2c1CCC2)c1ccco1,"inconclusive: 29.1 µM [cytotoxic, single point]",–
O=C(Nc1ncccc1O)c1cccc(S(=O)(=O)N2CCCc3ccccc32)c1,"inconclusive: 25.9 µM [cytotoxic, single point]",–
O=C(COC(=O)c1cccc2ccccc12)Nc1ncc(C(F)(F)F)cc1Cl,–,inactive: 20.8%
CCOC(=O)CN(C(=O)COc1nc(C)cc(C)c1C#N)c1ccc(Cl)cc1,"inconclusive: 2.59 µM [cytotoxic, full curve]",–
CN(C)c1cccc(C(=O)NNC(=S)NC2CC3CCC2C3)c1 (stereo not drawn),"inconclusive: 23.1 µM [cytotoxic, single point]",–
O=C(NNC1CC(=O)N(c2ccc3c(c2)OCCO3)C1=O)c1ccc(Cl)cc1 (stereo not drawn),"inconclusive: 6.51 µM [rising, full curve]",–
Cc1ccnc2nc(C(=O)OCC(=O)c3ccc(Cl)cc3)nn12,"inconclusive: 20.6 µM [rising, partial curve]",–
CCN(CC(=O)Nc1ccccc1C(F)(F)F)C(=O)c1oc2c(Cl)cccc2c1C,active: 18.4 µM,–
CC(C)c1nnc(NC(=O)CCC(=O)N2CCN(C3c4ccccc4-c4ccccc43)CC2)s1,"inconclusive: 20.6 µM [cytotoxic, partial curve, poor fit]",–
Cc1c(Cl)cccc1NC(=S)NCCc1ccc(Cl)cc1,–,inactive: 0%
CCn1c(=O)cc(OCC(=O)Nc2ccc(C)cn2)c2ccccc21,"inconclusive: 0.731 µM [rising, full curve]",–
CC(C)(C)OC(=O)N1CSC[C@H]1C(=O)NC[C@H](CC(=O)O)c1ccc(Cl)cc1,–,inactive: 1.88%
